PubChem BioAssay AID743121, NCATS | 2013
Test: 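Partners whose loss is lethal together with topoisomerase I blockade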 (primary screen). Cells: MDA-MB-231 cells, a human breast cancer line. Knock-down reagent: single siRNA against human genes, 20 nM siRNA (0.8 pmol per well). Timing: 120 h (drug added 48 h after transfection, read 72 h later). Treatment: camptothecin 20 nM (about EC30) for 72 h; vehicle 0.1% DMSO in parallel plates. Read-out: 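Cell viability by ATP luminescence (CellTiter-Glo) as % of non-targeting siRNA wells, and the log2 ratio of viability without drug over viability with camptothecin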. Scale: log2 vehicle/camptothecin viability: higher = stronger sensitisation to camptothecin. Hit rule: 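Active genes have an RSA gene-level p-value below 0.001, computed from the ratios of their separate siRNAs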.
Here is one part, drawn at random, of about 26,000 reagents. 167 of them (0.63%) count as active. 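Calls are per gene from RSA p-values that are not deposited; an individual active-marked siRNA can sensitise only weakly.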 Not all columns of the deposit are shown. Reagent sequences are not shown.

CKAP2 (cytoskeleton associated protein 2) [SID164460809] gave log2 vehicle/camptothecin viability 0.158; inactive.
Knock-down of CKAP2 (cytoskeleton associated protein 2) [SID164460810] resulted in: log2 vehicle/camptothecin viability -0.313; inactive.
CKAP2 (cytoskeleton associated protein 2) [SID164460811] showed log2 vehicle/camptothecin viability 0.0363; inactive.
CKAP2 (cytoskeleton associated protein 2) [SID164460812] gave log2 vehicle/camptothecin viability -0.168; inactive.
For ATRAID (all-trans retinoic acid induced differentiation factor) [SID164473637] the deposit lists log2 vehicle/camptothecin viability -0.525; inactive.
Silencing of ATRAID (all-trans retinoic acid induced differentiation factor) [SID164473639] gave: log2 vehicle/camptothecin viability -0.302; inactive.
ATRAID (all-trans retinoic acid induced differentiation factor) [SID164473640] scored log2 vehicle/camptothecin viability 0.116; inactive.
With knock-down of HDC (histidine decarboxylase) [SID164368719], the record shows log2 vehicle/camptothecin viability -0.346; inactive.
HDC (histidine decarboxylase) [SID164368721] scored log2 vehicle/camptothecin viability -0.0394; inactive.
Depletion of HDC (histidine decarboxylase) [SID164368723] came out at: log2 vehicle/camptothecin viability -0.386; inactive.
Against HDC (histidine decarboxylase) [SID164368724] the deposit lists log2 vehicle/camptothecin viability -0.441; inactive.
For CYP2C18 (cytochrome P450 family 2 subfamily C member 18) [SID164360747], the entry reads log2 vehicle/camptothecin viability -0.307; inactive.
After knock-down of CYP2C18 (cytochrome P450 family 2 subfamily C member 18) [SID164360748] the results were log2 vehicle/camptothecin viability -0.145; inactive.
With knock-down of CYP2C18 (cytochrome P450 family 2 subfamily C member 18) [SID164360750] the results were log2 vehicle/camptothecin viability -0.178; inactive.
CYP2C18 (cytochrome P450 family 2 subfamily C member 18) [SID164360752] showed log2 vehicle/camptothecin viability -0.394; inactive.

2 entries already listed, ordered by “log2 vehicle/camptothecin viability”, high to low:
HDC (histidine decarboxylase) [SID164368721] — log2 vehicle/camptothecin viability = -0.0394; outcome = inactive
HDC (histidine decarboxylase) [SID164368723] — log2 vehicle/camptothecin viability = -0.386; outcome = inactive
